Measurements published in paper PMC7712783.
No constants are given. Whether binding was seen depends on the method and setting. In cells and extracts the contact can be indirect. Some results given as binding are weak or reduced against the parent protein; the word gives no strength.

By UniProt entry, the sequences of proteins in these tests, tags left out.
UniProt Q8N884: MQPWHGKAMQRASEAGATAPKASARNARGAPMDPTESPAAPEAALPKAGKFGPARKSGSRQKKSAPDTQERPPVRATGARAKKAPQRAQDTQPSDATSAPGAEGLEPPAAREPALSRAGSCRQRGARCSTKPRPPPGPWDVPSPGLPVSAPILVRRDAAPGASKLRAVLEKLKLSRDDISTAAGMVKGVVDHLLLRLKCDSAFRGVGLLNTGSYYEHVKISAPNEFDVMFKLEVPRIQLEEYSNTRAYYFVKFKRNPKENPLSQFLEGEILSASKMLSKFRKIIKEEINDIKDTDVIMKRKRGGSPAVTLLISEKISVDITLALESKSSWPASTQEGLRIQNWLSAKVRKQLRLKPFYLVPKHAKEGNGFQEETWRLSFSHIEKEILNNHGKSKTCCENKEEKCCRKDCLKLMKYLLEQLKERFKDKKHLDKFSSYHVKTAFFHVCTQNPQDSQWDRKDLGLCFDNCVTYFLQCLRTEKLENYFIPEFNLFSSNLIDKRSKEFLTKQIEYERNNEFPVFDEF

How the values were obtained:
[1] = molecular target: cGAS of the co-immunoprecipitation in VSV-infected cells (Supplementary Fig. 4a) (human) (UniProt Q8N884); assay: co-IP
[2] = molecular target: cyclic GMP-AMP (cGAMP) synthase (cGAS), endogenous in THP-1 cells (human (endogenous in THP-1)) (UniProt Q8N884); assay: co-IP

Row | Substance | binding [1] | binding [2]
1 | DNA-dependent protein kinase catalytic subunit (DNA-PKcs) (from UniProt P78527 1-4128) | binds | binds
2 | Ku70 (from UniProt P12956 1-609) | binds | binds
3 | Ku80 (from UniProt P13010 1-732) | binds | binds
